Experimental data: patent publication US20220331326A1, “PHARMACEUTICAL COMPOSITION, PHARMACEUTICAL DOSAGE FORM, PROCESS FOR THEIR PREPARATION, METHODS FOR TREATING AND USES THEREOF” (Boehringer Ingelheim International GmbH, priority 2009, published 2022)
For at least one compound, name, drawing or mass did not settle the structure.

Test: particle size distribution measurement by laser diffraction
Assay type: physicochemical
Conditions: volume distribution, milled API

`CC#CCn1c(N2CCC[C@@H](N)C2)nc2c1c(=O)n(Cc1nc(C)c3ccccc3n1)c(=O)n2C` [Linagliptin, linagliptin] showed an X10 (Batch 1) of 2.1 μm, an X50 (Batch 1) of 13.5 μm and an X90 (Batch 1) of 31.8 μm. For the same compound, the X10 (Batch 2) was 2.0 μm, the X50 (Batch 2) was 17.3 μm and the X90 (Batch 2) was 36.8 μm.
